Measured values from PubChem BioAssay AID488840 (Broad Institute, 2010).
The whole screen tested about 1,400 compounds, of which about 45 (3%) were called active.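 How the source made its calls: active means half-maximal dose of signal decrease from fit no higher than ten times the top valid tested dose; inconclusive means fit invalid, or curve flat with 30 to 70% inhibition; inactive means the rest.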 Some of the results follow. Entries with a potency or affinity are not part of this list.

The chains behind the UniProt entries cited, without tags or fusion partners. Where a name states a change or a piece, a line headed by the entry shows the natural chain unless it says otherwise.
UniProt O75164: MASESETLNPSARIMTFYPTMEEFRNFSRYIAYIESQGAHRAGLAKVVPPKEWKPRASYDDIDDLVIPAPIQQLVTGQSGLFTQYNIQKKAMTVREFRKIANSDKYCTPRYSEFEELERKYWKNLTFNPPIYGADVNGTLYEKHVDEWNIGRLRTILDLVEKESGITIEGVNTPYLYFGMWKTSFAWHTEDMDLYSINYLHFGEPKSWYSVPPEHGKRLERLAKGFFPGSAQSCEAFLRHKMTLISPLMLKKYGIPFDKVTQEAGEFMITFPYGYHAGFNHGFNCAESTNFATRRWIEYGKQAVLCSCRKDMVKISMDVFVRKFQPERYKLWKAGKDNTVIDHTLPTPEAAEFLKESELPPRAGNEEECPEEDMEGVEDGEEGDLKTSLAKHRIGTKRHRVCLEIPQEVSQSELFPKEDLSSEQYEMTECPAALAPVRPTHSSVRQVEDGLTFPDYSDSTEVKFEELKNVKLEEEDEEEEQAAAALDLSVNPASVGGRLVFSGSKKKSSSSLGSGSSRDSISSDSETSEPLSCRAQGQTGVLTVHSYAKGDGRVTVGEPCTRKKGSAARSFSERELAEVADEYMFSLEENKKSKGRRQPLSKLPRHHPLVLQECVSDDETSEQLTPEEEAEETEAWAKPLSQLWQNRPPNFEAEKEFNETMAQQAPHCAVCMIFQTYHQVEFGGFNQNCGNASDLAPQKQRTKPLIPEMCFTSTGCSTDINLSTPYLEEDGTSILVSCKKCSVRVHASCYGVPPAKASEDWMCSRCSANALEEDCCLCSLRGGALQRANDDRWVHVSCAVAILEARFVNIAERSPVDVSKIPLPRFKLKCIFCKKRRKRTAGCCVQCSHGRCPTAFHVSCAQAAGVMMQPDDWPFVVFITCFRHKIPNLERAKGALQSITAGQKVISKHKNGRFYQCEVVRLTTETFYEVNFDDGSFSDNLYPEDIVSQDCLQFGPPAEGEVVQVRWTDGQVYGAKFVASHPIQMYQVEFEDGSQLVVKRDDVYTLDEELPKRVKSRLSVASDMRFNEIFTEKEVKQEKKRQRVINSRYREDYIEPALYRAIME

target: Lysine-specific demethylase 4A (Homo sapiens) (UniProt O75164); assay: inhibition of JMJD2A H3K9me3 demethylation – biochemical, DELFIA europium, cherry-picked samples, selectivity assay for GASC-1 inhibitor project, dose response (AID 488840); conditions: GST-JMJD2A(1-420) H3K9me3 demethylation; at 6 µM (top of the series) unless noted;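 further: europium signal reports the dimethyl H3K9 product detected by antibody so inhibitors lower it; 0% = median of neutral control wells and -100% = median of positive control wells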

Activity change, negative = inhibition, inactive:
CCN(CC)C(=O)N1CCc2ccccc2C1CN1C(=O)c2ccccc2C1=O (centres undefined) -1.77%
COc1ccc(/C=N/NC(=O)c2cc(C)on2)c2ccccc12 -2.86%
O=C(NC1(O)C(=O)c2ccccc2C1=O)c1c(Cl)cccc1Cl 5.82%
CCCC(=O)Nc1nc2c(c(=O)[nH]1)CCCC2 -2.07%
Cc1c(C(=O)Nc2ccc3c(c2)OCO3)sc2ncn(CC(=O)N3CC(C)CC(C)C3)c(=O)c12 (centres undefined) -0.463%
COc1cc(NS(=O)(=O)c2ccc(NC(=O)c3ccc(C)o3)cc2)nc(OC)n1 -1.8%
O=C(OCc1nnc(-c2ccccc2)o1)c1cc(S(=O)(=O)N2CCOCC2)c(Cl)cc1Cl 6.12%
CN1C(=O)Cc2cc(S(=O)(=O)NCCc3ccc(Cl)cc3)ccc21 -3.24%
COC(=O)[C@]1(Cc2ccccc2)N[C@H](CN(C)C(=O)Nc2ccccc2)[C@@H]2C(=O)N(C)C(=O)[C@@H]21 6.68%
CCN(CC)S(=O)(=O)c1ccc(N2CCOCC2)c(NC(=O)c2ccc3c(c2)OCCO3)c1 4.19%
COc1ccccc1/C=C1/SC(=S)N(C(C)C(=O)NC2C=CS(=O)(=O)C2)C1=O (centres undefined) -11.8%
O=C(COC(=O)c1cccc(S(=O)(=O)NCc2ccccc2)c1)Nc1ccccc1OC(F)F 0.665%
COc1cccc(C(c2c(C)[nH]n(-c3ccccc3)c2=O)c2c(C)[nH]n(-c3ccccc3)c2=O)c1O 1.69%
C[C@H](CO)N1C[C@H](C)[C@@H](CN(C)Cc2ccc(Cl)c(Cl)c2)Oc2c(NS(=O)(=O)c3cn(C)cn3)cccc2C1=O -0.723%
Cc1ccccc1C(=O)OCCCN=C1NS(=O)(=O)c2ccccc21 7.05%
CCC(C)C(NC(=O)OC(C)(C)C)C(=O)NC(C(=O)N1CCCC1C(N)=O)C(C)CC (centres undefined) 2.85%
COC(=O)C1CCN(C(=O)COC(=O)COc2ccc(C#N)cc2)CC1 -0.0304%
CCOc1cc(NC(=O)c2ccco2)c(OCC)cc1NC(=O)c1ccco1 11.3%
COc1ccc(-c2cc3c(=O)n(CC(=O)NCc4cccnc4)nc(C)n3n2)cc1 -7.08%
COc1ccc(C(=O)N2CCC(C(=O)NCc3ccccn3)CC2)cc1 8.19%
O=C(Cn1c(=O)sc2ccccc21)NCc1ccco1 -6.24%
CC(=O)c1c(Nc2ccccc2)sc(C(=O)c2ccccc2)c1C 1.35%
COc1ccc(NC(=O)c2cccc(N3C(=O)C4CC=C(C)CC4C3=O)c2)c(OC)c1 (centres undefined) -5%
COc1ccccc1OCCOCCn1cnc2ccccc2c1=O 4.73%
COc1cc(-c2nnco2)cc(OC)c1OC -8.4%
Nc1ncnc2c1ncn2[C@@H]1O[C@H](CNCC#Cc2ccccc2)[C@@H](O)[C@H]1O 4.51%
O=C(Nc1ccc(-c2csc(Nc3ccc(Cl)cc3)n2)cc1)c1ccccc1 -6.43%
O=C(CC1C[C@H](C(=O)N2CCCCC2)[C@@]2(CCc3ccccc3)c3[nH]c4ccccc4c3CCN2C1=O)NCCC1=CCCCC1 (some centres undefined) 2.22%
O=C(NCC1CCCO1)Nc1ccccc1 (centres undefined) 4.13%
Cc1nnc(N2C(=O)C(=O)/C(=C(/O)c3ccc4c(c3)CC(C)O4)C2c2ccccc2F)s1 (centres undefined) 1.69%
O=C(O)CSc1nnc(COc2cccc3cccnc23)n1-c1cccc(C(F)(F)F)c1 -0.268%
COc1ccc(/C=C(/C(=O)NCc2ccccc2)c2ccccc2)cc1 -0.518%
CCOC(=O)c1[nH]c(CSc2nnnn2-c2ccccc2C)c(C(=O)OCC)c1C 1.13%
CCOC(=O)c1c(S(=O)(=O)N2CCN(c3ccc(F)cc3)CC2)c(C)n(C)c1C -1.22%
COc1ccc(CCNC(=O)c2cccc(NS(=O)(=O)c3ccccc3F)c2)cc1OC 5.64%
CC1(C)CC(=O)C2=C(C1)OC(N)=C(C#N)C2C#Cc1ccccc1 (centres undefined) 4.74%
CC(C)c1ccc(NC2CCCN(C(=O)CCN3CCCCC3=O)C2)cc1 (centres undefined) -4.65%
c1cc2c(cc1C1CCCCC1)c1c3n2CCCNC3CCC1 (centres undefined) -2.29%
COc1ccc(C(C(C(=O)c2ccco2)N2CCOCC2)N2CCOCC2)cc1 (centres undefined) 1.47%
COc1ccc(C(=O)NCc2nnc(SCC(=O)N3CCc4ccccc43)o2)cc1OC 0.424%
COCCNC(=S)N1CCN(C)CC1 -7.29%
C#CCOCCOCCOCCNc1nc(N2CCN(C(=O)[C@H](CCCCN)n3cc(CN)nn3)CC2)nc(N2CCN(C(=O)[C@H](CCC(=O)O)n3cc([C@@H](N)CCSC)nn3)CC2)n1 1.72%
COc1ccc(OC)c(Nc2nc(-c3cccs3)cs2)c1 4.65%
O=C1NC(=S)N/C1=C/c1cc2c(cc1[N+](=O)[O-])OCO2 3.33%
Cc1ccc(CNC(=O)CCC2CCCN(Cc3ccc4cccc(F)c4n3)C2)o1 (centres undefined) 1.48%
COc1ccc(CNCC(=O)Nc2sccc2C#N)cc1 -5.92%
O=C(NCc1ccccn1)c1ccc(OC2CCN(Cc3cccs3)CC2)cc1 -3.92%
CC(O)CNc1nc2ccccc2n1CC(=O)NC12CC3CC(CC(C3)C1)C2 (centres undefined) -6.59%
O=C(N/N=C/c1nn(-c2ccccc2)cc1-c1ccccc1)c1ccncc1 2.88%
CCN(CC)C(CNS(=O)(=O)c1ccc(Cl)cc1)c1ccccc1 (centres undefined) -0.453%
CC(=O)c1sc(NC(=O)c2ccc(C)cc2)nc1C -7.38%
CC(C)N(C(=O)[C@H]1CC(CC(=O)NCc2cccc(C(F)(F)F)c2)C(=O)N2CCc3c([nH]c4ccccc34)[C@]12C)C(C)C (some centres undefined) 0.968%
CNc1nc2c(c(=O)[nH]c(=O)n2C)n1CCCc1ccccc1 -6.12%
Cc1sc2c(c1C)C(=O)/C(=C\Nc1ccccn1)S(=O)(=O)N2C 1.34%

Ordered by count of non-hydrogen atoms (rising): part of the list above.
Activity change, negative = inhibition, inactive:
COc1cc(-c2nnco2)cc(OC)c1OC -8.4%
O=C1NC(=S)N/C1=C/c1cc2c(cc1[N+](=O)[O-])OCO2 3.33%
COc1ccc(OC)c(Nc2nc(-c3cccs3)cs2)c1 4.65%
COc1ccc(/C=N/NC(=O)c2cc(C)on2)c2ccccc12 -2.86%
CCN(CC)C(CNS(=O)(=O)c1ccc(Cl)cc1)c1ccccc1 (centres undefined) -0.453%
COc1ccc(C(=O)N2CCC(C(=O)NCc3ccccn3)CC2)cc1 8.19%
CC(C)c1ccc(NC2CCCN(C(=O)CCN3CCCCC3=O)C2)cc1 (centres undefined) -4.65%
O=C(N/N=C/c1nn(-c2ccccc2)cc1-c1ccccc1)c1ccncc1 2.88%
CCN(CC)C(=O)N1CCc2ccccc2C1CN1C(=O)c2ccccc2C1=O (centres undefined) -1.77%
COc1ccc(NC(=O)c2cccc(N3C(=O)C4CC=C(C)CC4C3=O)c2)c(OC)c1 (centres undefined) -5%
O=C(COC(=O)c1cccc(S(=O)(=O)NCc2ccccc2)c1)Nc1ccccc1OC(F)F 0.665%
COc1cccc(C(c2c(C)[nH]n(-c3ccccc3)c2=O)c2c(C)[nH]n(-c3ccccc3)c2=O)c1O 1.69%
